This note sets out measurements from publication PMC10954555.

Amino acid sequences for entries named in this document (tags omitted).
UniProt Q9C086: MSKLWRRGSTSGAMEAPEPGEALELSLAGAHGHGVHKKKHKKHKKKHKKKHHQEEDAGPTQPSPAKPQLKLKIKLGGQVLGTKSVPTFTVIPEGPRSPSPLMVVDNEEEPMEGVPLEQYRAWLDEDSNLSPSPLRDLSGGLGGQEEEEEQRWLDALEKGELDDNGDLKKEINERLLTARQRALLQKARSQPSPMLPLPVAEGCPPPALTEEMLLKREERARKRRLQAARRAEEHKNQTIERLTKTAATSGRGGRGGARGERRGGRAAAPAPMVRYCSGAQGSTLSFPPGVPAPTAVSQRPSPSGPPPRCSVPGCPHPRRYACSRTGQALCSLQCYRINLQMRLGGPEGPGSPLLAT
UniProt Q53TQ3: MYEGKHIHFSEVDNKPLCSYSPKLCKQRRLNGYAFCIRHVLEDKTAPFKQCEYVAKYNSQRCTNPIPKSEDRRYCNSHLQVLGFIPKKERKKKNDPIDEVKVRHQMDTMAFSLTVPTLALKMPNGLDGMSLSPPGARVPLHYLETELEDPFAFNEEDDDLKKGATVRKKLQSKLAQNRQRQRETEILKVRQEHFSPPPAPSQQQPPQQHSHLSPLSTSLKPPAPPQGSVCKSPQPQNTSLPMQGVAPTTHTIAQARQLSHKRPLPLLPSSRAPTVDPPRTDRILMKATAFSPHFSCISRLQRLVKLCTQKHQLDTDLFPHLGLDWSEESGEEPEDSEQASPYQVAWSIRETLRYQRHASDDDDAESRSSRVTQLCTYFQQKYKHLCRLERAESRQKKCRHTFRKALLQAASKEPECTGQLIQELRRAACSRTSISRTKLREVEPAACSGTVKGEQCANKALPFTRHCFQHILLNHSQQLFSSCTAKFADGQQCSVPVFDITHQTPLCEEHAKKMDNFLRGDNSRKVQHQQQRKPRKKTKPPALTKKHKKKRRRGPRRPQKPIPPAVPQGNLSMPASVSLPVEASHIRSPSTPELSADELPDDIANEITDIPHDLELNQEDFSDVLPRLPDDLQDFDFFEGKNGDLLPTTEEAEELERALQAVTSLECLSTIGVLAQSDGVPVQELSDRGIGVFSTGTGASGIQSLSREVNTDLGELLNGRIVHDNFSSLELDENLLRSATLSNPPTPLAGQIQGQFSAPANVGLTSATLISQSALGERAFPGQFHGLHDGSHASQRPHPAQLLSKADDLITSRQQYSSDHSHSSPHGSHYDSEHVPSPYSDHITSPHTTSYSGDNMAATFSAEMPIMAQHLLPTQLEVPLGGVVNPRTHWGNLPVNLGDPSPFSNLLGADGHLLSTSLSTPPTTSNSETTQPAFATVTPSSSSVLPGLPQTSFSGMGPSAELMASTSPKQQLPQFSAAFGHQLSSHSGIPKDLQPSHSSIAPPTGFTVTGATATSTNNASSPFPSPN
UniProt Q96EZ8: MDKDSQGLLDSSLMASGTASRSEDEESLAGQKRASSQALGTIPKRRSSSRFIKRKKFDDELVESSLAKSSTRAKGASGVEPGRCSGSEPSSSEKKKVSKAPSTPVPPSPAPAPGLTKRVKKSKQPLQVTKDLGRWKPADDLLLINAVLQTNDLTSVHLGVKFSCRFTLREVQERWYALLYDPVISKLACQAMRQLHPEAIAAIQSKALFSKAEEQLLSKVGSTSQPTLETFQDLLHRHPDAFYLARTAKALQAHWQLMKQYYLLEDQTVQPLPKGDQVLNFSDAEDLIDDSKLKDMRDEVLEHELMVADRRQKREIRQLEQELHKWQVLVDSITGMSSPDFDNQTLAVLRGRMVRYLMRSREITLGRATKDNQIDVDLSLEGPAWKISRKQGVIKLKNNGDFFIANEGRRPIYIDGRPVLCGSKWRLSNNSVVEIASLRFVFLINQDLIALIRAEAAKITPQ
UniProt P25490: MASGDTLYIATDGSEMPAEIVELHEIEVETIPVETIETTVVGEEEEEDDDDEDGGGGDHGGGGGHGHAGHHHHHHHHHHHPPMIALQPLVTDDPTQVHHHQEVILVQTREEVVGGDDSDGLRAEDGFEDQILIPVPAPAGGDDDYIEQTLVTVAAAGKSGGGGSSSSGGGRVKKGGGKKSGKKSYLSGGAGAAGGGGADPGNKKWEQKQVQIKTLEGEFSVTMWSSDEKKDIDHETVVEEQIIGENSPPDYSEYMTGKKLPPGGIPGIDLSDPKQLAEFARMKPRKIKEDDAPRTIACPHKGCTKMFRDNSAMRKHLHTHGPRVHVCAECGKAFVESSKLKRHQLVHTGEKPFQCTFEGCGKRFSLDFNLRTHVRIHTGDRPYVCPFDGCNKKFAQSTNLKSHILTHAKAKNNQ

The target of assay [1] is INO80B-V5 (endogenously V5-tagged INO80B) (human (endogenous in MCF-7)) (UniProt Q9C086). The assay can be described thus: affinity purification with mass spectrometry; anti-V5 immunoprecipitation from nuclear extracts of MCF-7 INO80B-V5 knock-in clones followed by label-free MS (n = 3); stoichiometry relative to INO80B.
The target is the same in assay [2]. The assay is described as above. The source holds these as a separate data set.

Like-named read-outs stand apart in the source and are kept apart here. Results are given in words; binding and its absence hold for the method and conditions named. In cells and extracts the contact can be indirect. These calls come from enrichment with a bait or labelling near it, and not all partners need be listed.

Turning to INO80D (from UniProt Q53TQ3 1-1027), the binding entry in assay [1] is “binds”.

Turning to MCRS1 (from UniProt Q96EZ8 1-462), in assay [1], the binding entry was “binds”.

As for YY1 (from UniProt P25490 1-414), in assay [1], the binding entry is reported as “binds”.

B1: transforming growth factor beta regulator 1 (TBRG1) (protein, UniProt Q3YBR2 1-411)
chain: MSLLDGLASSPRAPLQSSKARMKKLPKKSQNEKYRLKYLRLRKAAKATVFENAAICDEIARLEEKFLKAKEERRYLLKKLLQLQALTEGEVQAAAPSHSSSLPLTYGVASSVGTIQGAGPISGPSTGAEEPFGKKTKKEKKEKGKENNKLEVLKKTCKKKKMAGGARKLVQPIALDPSGRPVFPIGLGGLTVYSLGEIITDRPGFHDESAIYPVGYCSTRIYASMKCPDQKCLYTCQIKDGGVQPQFEIVPEDDPQNAIVSSSADACHAELLRTISTTMGKLMPNLLPAGADFFGFSHPAIHNLIQSCPGARKCINYQWVKFDVCKPGDGQLPEGLPENDAAMSFEAFQRQIFDEDQNDPLLPGSLDLPELQPAAFVSSYQPMYLTHEPLVDTHLQHLKSPSQGSPIQSSD
For the molecule B1, the binding result in assay [2] was “binds”.
